System: hyaluronidase (HAdase, from bovine testes, type I-S)
Test: Degradation by hyaluronidase (SEC)
Assay type: biochemical

Row | Substance | degradation in the presence of HAdase (24 hours, pH 6.4, 37° C.) | HAdase specificity and degradability | molecular weight after HAdase digestion (t=24 h (35 kD at t=0 h)) [kD]
1 | HA-cis-[Pt(NH3)2(N^α-Acetyl-L-Lysine)] [HA-Lys-Pt] | maintained similar rates of degradation |  | 
2 | HA-cis-[Pt(NH3)2(Nα-AcetylGluH)] [HA-GluH-Pt] |  | maintained HAdase specificity and degradability | 27
